The list shows a part of the results.
What was measured:
Assay in all cases: log2 fold change, soluble protein after heating vs DMSO (PISA); higher = thermal stabilisation; K562 lysate, 10 uM; active = over 0.2 and 3.5 SD of the protein, either way, in both replicates (recomputed)
[1] = compound: Cc1cn(-c2cc(NC(=O)c3ccc(C)c(Nc4nccc(-c5cccnc5)n4)c3)cc(C(F)(F)F)c2)cn1 [nilotinib]
Procedure, shortened: (§1)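 The values are log-two fold changes in thermal stability compared with solvent controls and come from duplicates. They were obtained by TMTpro 16plex LC-MS/MS, with channel sums equalised, on the supernatant after 21,000xg for 90 min. That supernatant came from crude K562 extract at 1 mg/mL protein treated with 10 μM compound for 30 min, heated for 3 min across 48°C-58°C, pooled and brought to 0.5% NP-40 at 4°C.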

Sequences of proteins named here, by UniProt entry; tags and fusion partners are left off. A change or cut given only in a name is not applied to a line headed by its entry.
UniProt Q96DE0: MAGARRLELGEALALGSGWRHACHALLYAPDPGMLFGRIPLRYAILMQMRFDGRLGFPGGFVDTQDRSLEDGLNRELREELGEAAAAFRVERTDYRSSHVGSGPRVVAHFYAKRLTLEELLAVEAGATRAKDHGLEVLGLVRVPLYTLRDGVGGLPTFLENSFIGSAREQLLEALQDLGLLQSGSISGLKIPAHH
UniProt Q9UK39: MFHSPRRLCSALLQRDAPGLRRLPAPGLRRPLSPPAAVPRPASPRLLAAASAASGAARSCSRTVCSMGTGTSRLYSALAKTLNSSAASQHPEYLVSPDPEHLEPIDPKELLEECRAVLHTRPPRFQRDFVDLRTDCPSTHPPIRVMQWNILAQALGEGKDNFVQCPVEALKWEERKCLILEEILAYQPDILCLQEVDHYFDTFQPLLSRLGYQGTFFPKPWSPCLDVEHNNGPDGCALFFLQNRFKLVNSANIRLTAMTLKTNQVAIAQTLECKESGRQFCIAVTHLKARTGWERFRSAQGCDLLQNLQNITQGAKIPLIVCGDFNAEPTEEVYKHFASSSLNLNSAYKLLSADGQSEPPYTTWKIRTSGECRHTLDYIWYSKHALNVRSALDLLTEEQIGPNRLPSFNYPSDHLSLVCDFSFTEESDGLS
UniProt Q9BXD5: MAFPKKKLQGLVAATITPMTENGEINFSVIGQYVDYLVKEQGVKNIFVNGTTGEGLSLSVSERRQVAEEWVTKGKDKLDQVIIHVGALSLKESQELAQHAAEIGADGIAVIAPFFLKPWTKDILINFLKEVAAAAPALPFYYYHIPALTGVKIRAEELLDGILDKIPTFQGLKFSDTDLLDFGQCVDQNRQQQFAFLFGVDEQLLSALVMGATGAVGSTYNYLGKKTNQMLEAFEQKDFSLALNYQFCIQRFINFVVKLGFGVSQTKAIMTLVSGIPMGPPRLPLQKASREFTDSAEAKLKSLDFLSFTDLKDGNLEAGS
UniProt P69849: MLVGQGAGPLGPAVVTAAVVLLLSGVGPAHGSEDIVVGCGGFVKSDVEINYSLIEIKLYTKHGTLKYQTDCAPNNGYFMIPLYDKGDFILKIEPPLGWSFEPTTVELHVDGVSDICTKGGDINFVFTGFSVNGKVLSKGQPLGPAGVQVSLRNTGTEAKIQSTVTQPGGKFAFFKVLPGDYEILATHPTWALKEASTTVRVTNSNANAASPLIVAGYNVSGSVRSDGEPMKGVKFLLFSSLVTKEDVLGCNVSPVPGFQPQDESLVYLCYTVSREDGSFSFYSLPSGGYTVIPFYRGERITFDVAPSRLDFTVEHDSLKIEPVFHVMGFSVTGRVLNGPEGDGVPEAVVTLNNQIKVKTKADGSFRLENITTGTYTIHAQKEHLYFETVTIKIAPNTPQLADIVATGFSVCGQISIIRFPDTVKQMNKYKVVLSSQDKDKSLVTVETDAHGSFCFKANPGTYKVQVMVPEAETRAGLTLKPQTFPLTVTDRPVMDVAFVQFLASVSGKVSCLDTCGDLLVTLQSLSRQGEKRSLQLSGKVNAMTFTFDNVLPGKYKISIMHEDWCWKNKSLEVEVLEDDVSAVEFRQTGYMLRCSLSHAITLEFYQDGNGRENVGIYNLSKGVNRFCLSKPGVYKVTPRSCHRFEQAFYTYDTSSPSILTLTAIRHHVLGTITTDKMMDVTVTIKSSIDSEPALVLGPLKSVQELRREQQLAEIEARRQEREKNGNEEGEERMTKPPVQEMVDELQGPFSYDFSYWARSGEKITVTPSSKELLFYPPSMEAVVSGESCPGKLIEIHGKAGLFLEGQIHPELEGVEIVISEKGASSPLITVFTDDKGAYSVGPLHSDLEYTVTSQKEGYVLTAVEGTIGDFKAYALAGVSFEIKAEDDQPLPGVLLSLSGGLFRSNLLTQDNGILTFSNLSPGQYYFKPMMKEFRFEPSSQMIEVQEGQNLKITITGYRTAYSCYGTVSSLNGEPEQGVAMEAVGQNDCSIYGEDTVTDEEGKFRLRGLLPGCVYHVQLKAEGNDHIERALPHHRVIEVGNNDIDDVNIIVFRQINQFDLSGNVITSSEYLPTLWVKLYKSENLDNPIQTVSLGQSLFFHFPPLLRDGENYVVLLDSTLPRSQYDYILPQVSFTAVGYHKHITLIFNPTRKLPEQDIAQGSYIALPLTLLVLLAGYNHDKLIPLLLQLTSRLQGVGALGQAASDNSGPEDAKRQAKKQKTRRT
UniProt P10588: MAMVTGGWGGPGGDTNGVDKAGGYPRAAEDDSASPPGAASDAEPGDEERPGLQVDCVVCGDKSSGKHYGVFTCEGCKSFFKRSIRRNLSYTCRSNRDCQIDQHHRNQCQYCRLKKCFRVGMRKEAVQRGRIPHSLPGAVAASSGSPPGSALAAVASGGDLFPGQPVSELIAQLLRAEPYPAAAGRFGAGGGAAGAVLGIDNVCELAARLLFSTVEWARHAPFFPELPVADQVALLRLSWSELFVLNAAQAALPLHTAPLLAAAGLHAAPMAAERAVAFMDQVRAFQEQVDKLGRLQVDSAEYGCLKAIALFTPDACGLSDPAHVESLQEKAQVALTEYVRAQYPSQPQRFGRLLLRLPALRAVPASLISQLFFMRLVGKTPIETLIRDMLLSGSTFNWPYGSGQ
UniProt Q9BZD4: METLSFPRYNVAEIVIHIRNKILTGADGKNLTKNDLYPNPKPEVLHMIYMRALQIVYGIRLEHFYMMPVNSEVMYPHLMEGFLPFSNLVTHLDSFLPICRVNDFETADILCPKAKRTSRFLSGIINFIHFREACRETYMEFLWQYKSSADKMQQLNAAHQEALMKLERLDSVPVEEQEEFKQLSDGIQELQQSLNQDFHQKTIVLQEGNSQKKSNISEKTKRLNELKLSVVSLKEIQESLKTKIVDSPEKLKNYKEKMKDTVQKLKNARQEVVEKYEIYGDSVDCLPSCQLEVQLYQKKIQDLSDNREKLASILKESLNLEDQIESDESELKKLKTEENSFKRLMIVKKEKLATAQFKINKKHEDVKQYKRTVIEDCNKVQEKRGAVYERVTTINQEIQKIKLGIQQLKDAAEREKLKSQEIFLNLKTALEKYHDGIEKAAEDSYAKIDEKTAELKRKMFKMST
UniProt P15559, whole entry, looked up: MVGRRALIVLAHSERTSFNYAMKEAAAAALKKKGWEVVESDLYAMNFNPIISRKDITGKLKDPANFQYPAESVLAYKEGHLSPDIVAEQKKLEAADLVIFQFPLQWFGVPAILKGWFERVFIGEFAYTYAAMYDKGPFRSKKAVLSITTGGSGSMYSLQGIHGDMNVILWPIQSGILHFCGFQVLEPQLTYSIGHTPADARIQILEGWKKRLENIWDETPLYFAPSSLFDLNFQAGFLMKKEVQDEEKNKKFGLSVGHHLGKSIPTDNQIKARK
UniProt Q9BZ95: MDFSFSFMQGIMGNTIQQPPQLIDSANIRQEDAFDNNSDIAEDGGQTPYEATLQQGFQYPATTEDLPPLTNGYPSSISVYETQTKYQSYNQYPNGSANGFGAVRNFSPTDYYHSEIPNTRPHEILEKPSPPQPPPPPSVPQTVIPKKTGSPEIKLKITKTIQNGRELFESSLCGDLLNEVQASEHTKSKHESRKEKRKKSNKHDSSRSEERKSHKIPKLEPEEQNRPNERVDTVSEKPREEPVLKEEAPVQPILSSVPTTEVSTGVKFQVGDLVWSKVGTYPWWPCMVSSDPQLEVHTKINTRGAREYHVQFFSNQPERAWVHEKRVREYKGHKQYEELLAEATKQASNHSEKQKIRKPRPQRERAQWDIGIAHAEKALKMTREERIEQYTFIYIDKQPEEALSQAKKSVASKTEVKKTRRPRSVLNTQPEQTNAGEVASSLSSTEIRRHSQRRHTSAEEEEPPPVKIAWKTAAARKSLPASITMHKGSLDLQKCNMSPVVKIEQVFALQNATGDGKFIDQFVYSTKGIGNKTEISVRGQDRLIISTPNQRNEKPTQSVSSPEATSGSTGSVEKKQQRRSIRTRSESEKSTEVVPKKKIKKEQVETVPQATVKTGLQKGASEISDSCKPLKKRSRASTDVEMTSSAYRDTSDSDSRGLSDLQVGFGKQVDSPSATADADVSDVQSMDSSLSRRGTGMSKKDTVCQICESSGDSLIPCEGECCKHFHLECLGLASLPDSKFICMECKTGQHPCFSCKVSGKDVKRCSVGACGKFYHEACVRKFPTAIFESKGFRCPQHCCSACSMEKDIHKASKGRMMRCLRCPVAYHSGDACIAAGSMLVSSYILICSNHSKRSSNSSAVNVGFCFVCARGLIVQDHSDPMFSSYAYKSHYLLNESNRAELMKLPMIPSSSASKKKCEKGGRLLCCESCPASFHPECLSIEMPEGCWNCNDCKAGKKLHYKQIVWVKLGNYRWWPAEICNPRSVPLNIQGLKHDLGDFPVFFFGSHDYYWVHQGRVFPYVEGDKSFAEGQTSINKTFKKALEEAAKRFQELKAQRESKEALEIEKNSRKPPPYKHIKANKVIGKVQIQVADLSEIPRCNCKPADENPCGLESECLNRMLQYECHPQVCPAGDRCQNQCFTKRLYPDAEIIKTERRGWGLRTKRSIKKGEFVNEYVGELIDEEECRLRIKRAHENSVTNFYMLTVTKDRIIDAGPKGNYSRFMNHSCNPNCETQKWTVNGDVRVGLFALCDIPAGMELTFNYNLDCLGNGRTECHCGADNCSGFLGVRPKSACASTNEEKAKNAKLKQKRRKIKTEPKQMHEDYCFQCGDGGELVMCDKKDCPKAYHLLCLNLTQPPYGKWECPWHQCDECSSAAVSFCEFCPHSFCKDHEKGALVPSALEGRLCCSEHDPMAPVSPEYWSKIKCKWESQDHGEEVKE
UniProt P24468: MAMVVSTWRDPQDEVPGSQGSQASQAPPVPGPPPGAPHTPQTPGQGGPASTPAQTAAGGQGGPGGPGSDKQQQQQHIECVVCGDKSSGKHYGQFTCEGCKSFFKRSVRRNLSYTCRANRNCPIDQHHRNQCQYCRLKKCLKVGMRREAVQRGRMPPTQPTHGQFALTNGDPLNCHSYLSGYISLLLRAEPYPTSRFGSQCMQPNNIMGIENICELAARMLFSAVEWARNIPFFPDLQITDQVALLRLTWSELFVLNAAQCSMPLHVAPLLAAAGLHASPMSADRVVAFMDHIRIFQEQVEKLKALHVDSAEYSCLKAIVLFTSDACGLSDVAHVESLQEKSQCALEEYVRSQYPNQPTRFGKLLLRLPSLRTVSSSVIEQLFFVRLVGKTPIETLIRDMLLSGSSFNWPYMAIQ
UniProt Q96MF7: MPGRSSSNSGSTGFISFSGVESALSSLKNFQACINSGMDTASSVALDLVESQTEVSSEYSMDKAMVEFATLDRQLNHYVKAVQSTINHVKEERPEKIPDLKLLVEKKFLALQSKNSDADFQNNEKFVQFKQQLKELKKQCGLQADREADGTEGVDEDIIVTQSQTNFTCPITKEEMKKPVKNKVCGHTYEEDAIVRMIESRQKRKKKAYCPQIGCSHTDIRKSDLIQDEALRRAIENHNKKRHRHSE
UniProt P49757: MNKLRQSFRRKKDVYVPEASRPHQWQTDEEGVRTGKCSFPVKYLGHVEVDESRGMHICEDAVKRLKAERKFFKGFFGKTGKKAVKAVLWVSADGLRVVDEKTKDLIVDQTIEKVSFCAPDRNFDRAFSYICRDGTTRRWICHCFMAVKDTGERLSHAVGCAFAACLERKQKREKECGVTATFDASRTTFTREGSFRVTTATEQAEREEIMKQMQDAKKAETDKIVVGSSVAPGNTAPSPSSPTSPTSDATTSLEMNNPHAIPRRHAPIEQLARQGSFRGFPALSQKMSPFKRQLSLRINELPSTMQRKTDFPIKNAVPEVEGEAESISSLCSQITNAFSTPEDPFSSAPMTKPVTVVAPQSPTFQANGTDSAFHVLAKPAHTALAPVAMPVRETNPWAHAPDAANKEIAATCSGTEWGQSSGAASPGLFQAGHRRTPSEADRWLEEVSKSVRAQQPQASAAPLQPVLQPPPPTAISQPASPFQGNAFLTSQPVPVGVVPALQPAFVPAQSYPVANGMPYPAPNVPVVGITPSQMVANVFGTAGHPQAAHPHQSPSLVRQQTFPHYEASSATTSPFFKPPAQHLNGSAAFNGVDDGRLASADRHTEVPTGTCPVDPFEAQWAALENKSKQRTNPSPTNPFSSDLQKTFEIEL
UniProt Q9BV86: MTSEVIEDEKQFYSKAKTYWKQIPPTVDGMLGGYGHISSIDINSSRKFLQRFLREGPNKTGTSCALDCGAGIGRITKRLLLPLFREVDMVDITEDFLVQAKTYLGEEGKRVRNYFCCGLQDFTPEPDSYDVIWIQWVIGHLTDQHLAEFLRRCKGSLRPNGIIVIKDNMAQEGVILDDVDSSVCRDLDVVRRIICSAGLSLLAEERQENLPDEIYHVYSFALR

[2] = compound: Cc1nc(Nc2n[nH]c3c2CN(C(=O)N[C@H](CN(C)C)c2ccccc2)C3(C)C)c2sccc2n1
Procedure, shortened: as §1

[3] = compound: Cc1nc(Nc2ncc(C(=O)Nc3c(C)cccc3Cl)s2)cc(N2CCN(CCO)CC2)n1 [dasatinib]
Procedure, shortened: as §1

[4] = compound: Cc1ncc(-c2ccnc(Nc3ccc(S(C)(=O)=O)cc3)n2)n1C(C)C
Procedure, shortened: as §1

[5] = compound: Cn1cc(-c2ccc3c(c2)CCN3C(=O)Cc2cccc(C(F)(F)F)c2)c2c(N)ncnc21
Procedure, shortened: as §1

[6] = compound: Cn1cc(CNCC2CCN(c3ncc(C(=O)NO)cn3)CC2)c2ccccc21 [quisinostat]
Procedure, shortened: as §1

[7] = compound: Cn1cncc1[C@@](N)(c1ccc(Cl)cc1)c1ccc2c(c1)c(-c1cccc(Cl)c1)cc(=O)n2C [tipifarnib]
Procedure, shortened: as §1

[8] = compound: NC(=O)Nc1cc(-c2cccc(F)c2)sc1C(=O)N[C@H]1CCCNC1
Procedure, shortened: as §1

[9] = compound: NC(=O)c1cnc(N[C@@H]2CCCC[C@@H]2N)nc1Nc1cccc(-n2nccn2)c1
Procedure, shortened: as §1

[10] = compound: NC1(c2ccc(-c3nc4ccn5c(=O)[nH]nc5c4cc3-c3ccccc3)cc2)CCC1
Procedure, shortened: as §1

[11] = compound: NCC(=O)Nc1ccc(-n2nc(C(F)(F)F)cc2-c2ccc3c(ccc4ccccc43)c2)cc1
Procedure, shortened: as §1

[12] = compound: O=C(CCCCCCC(=O)Nc1ccccc1)NO [vorinostat]
Procedure, shortened: as §1

[13] = compound: O=C(O)c1ccc2c(c1)nc(Nc1cccc(Cl)c1)c1ccncc12 [silmitasertib]
Procedure, shortened: as §1

[14] = compound: O=C1NC(=O)C(c2cnc3ccccn23)=C1c1cn2c3c(cc(F)cc13)CN(C(=O)N1CCCCC1)CC2
Procedure, shortened: as §1

[15] = compound: c1cn2cc(-c3ccc4cn[nH]c4c3)nc(Nc3ccc(N4CCOCC4)cc3)c2n1 [entospletinib]
Procedure, shortened: as §1

Measured: log2 fold change

NUB1 (UniProt Q9Y5A7)
active: [12] -0.333
inactive: [1] -0.021 | [2] 0.025 | [3] -0.03 | [4] 0.028 | [5] 0.014 | [6] 0.035 | [7] 0.003 | [8] 0.018 | [9] 0.004 | [10] -0.002 | [11] -0.004 | [13] -0.027 | [14] 0.031 | [15] 0.001

NUDT16 (UniProt Q96DE0)
inactive: [1] -0.005 | [2] -0.006 | [3] 0.026 | [4] 0.035 | [5] 0.009 | [6] -0.011 | [7] -0.01 | [8] -0.005 | [9] -0.005 | [10] -0.008 | [11] -0.028 | [12] 0.123 | [13] -0.007 | [14] 0.031 | [15] -0.053

NOCT (UniProt Q9UK39)
active: [12] -0.886
inactive: [1] -0.045 | [2] 0.011 | [3] 0.013 | [4] -0.084 | [5] 0.017 | [6] 0 | [7] 0.061 | [8] 0.043 | [9] 0.004 | [10] -0.014 | [13] 0.004 | [14] -0.036 | [15] -0.301

NUP155 (UniProt O75694)
inactive: [1] 0.052 | [2] 0.045 | [3] -0.015 | [4] -0.074 | [5] 0.018 | [6] -0.037 | [7] -0.071 | [8] 0.074 | [9] 0.023 | [10] 0.032 | [11] 0.016 | [12] -0.175 | [13] 0.075 | [14] -0.026 | [15] 0.039

NPL (UniProt Q9BXD5)
inactive: [1] -0.021 | [2] -0.03 | [3] 0.118 | [4] -0.094 | [5] 0.019 | [7] -0.234 | [9] 0.047 | [10] 0 | [11] -0.039 | [12] -0.316 | [13] 0.084 | [15] -0.016

NOMO3 (UniProt P69849)
inactive: [1] 0.036 | [2] -0.323 | [3] -0.15 | [4] -0.053 | [5] -0.029 | [6] -0.043 | [7] -0.122 | [8] -0.049 | [9] -0.037 | [10] -0.178 | [12] 0.033 | [13] 0.159 | [14] -0.013

NR2F6 (UniProt P10588)
inactive: [1] 0.089 | [2] -0.113 | [3] 0.033 | [4] -0.013 | [5] 0.074 | [6] -0.049 | [7] 0.02 | [8] 0.089 | [14] 0.061 | [15] 0.079

NUF2 (UniProt Q9BZD4)
inactive: [1] -0.011 | [2] 0.002 | [3] -0.044 | [4] -0.005 | [5] 0.017 | [6] -0.012 | [7] 0.003 | [8] 0.061 | [9] 0.013 | [10] -0.014 | [11] 0.005 | [13] 0.017 | [14] 0.008 | [15] 0.016
active: [12] -0.242

NQO1 (UniProt P15559)
inactive: [1] 0.051 | [2] -0.031 | [3] 0.244 | [4] 0.022 | [5] -0.104 | [6] 0.021 | [7] 0.042 | [8] 0.042 | [9] -0.027 | [10] 0.056 | [11] 0.008 | [12] -0.132 | [13] 0.038 | [14] 0.023 | [15] -0.027

NSD3 (UniProt Q9BZ95)
inactive: [1] 0.013 | [2] -0.035 | [3] -0.233 | [4] -0.016 | [5] 0.153 | [6] -0.091 | [7] -0.144 | [8] 0.039 | [14] 0.034 | [15] 0.062

Quoted at random: two entries already listed.
NSD3 (UniProt Q9BZ95)
inactive: [1] 0.013 | [2] -0.035 | [3] -0.233 | [4] -0.016 | [5] 0.153 | [6] -0.091 | [7] -0.144 | [8] 0.039 | [14] 0.034 | [15] 0.062

NUDT16 (UniProt Q96DE0)
inactive: [1] -0.005 | [2] -0.006 | [3] 0.026 | [4] 0.035 | [5] 0.009 | [6] -0.011 | [7] -0.01 | [8] -0.005 | [9] -0.005 | [10] -0.008 | [11] -0.028 | [12] 0.123 | [13] -0.007 | [14] 0.031 | [15] -0.053

The list goes on.

NR2F2 (UniProt P24468)
active: [12] -0.389
inactive: [1] -0.063 | [2] 0.107 | [3] -0.027 | [4] -0.125 | [5] -0.006 | [6] -0.024 | [7] 0.034 | [8] 0.125 | [9] 0.024 | [10] 0.029 | [13] 0.176 | [14] 0.017

NSMCE2 (UniProt Q96MF7)
inactive: [1] 0.098 | [2] 0.04 | [3] -0.003 | [4] -0.076 | [5] 0.038 | [6] 0.035 | [7] 0.035 | [8] -0.024 | [9] 0.041 | [10] 0.149 | [11] -0.052 | [12] -0.175 | [13] 0.053 | [14] -0.041 | [15] 0.041

NUMB isoform 2 (UniProt P49757)
inactive: [1] -0.293 | [2] -0.07 | [3] 0.227 | [4] 0.225 | [5] -0.127 | [7] -0.068

NRDE2 (UniProt Q9H7Z3)
inactive: [1] -0.058 | [2] -0.023 | [3] 0 | [4] 0.126 | [5] -0.023 | [7] 0.144 | [9] 0.123

NOS1AP (UniProt O75052)
inactive: [1] -0.363 | [2] -0.058 | [4] -0.006 | [6] -0.462 | [7] 0 | [8] -0.155 | [9] 0.107 | [10] 0.321 | [11] 0.248 | [12] -0.585 | [13] 0.142 | [14] -0.303 | [15] -0.033

NTMT1 (UniProt Q9BV86)
active: [12] -0.366
inactive: [1] -0.033 | [2] -0.026 | [3] -0.053 | [4] 0.002 | [5] 0.047 | [6] -0.051 | [7] 0.012 | [8] 0.07 | [9] -0.049 | [10] -0.002 | [11] 0.008 | [13] 0.026 | [14] 0.01 | [15] 0.049

— the supplement of paper PMC10849652
